Test results from patent US7544665 (dated 2009).
Where “and” joins values, the source holds several entries; their conditions need not be identical. Equal entries are not always repeated. Plain letter strings leave the end groups untold.

Experiments:
[1] = general procedure: hybrid (solid and solution phase) peptide synthesis; 2-CTC; TBTU / 6-Chloro HOBT / DIEA; settings: whole synthesis
[2] = general procedure: hybrid (solid and solution phase) peptide synthesis; 2-CTC resin; TBTU / 6-Chloro HOBT / DIEA; settings: coupling step

Ac-WQEWEQKITALLEQAQIQQE
crude yield ([1]; run 1): 54.1% and 30.1%

KNEYELQKLDKWASLWEW
crude yield [1]: 89.8% | difficulty met [1]: Kaiser test showed incomplete reaction

KNEYELQKLDKWASLWEWF
step yield [2]: 90.7% | step yield ([2]; % AN HPLC): 101% | crude HPLC purity ([2]; HPLC area normalisation (AN), UV at 262 nm): 84.1%
